Test results from the supplement of paper PMC10849652.
Some of the results follow.

Amino acid sequences for entries named in this document (tags omitted). A change or cut given only in a name is not applied to a line headed by its entry.
UniProt Q8IZ21: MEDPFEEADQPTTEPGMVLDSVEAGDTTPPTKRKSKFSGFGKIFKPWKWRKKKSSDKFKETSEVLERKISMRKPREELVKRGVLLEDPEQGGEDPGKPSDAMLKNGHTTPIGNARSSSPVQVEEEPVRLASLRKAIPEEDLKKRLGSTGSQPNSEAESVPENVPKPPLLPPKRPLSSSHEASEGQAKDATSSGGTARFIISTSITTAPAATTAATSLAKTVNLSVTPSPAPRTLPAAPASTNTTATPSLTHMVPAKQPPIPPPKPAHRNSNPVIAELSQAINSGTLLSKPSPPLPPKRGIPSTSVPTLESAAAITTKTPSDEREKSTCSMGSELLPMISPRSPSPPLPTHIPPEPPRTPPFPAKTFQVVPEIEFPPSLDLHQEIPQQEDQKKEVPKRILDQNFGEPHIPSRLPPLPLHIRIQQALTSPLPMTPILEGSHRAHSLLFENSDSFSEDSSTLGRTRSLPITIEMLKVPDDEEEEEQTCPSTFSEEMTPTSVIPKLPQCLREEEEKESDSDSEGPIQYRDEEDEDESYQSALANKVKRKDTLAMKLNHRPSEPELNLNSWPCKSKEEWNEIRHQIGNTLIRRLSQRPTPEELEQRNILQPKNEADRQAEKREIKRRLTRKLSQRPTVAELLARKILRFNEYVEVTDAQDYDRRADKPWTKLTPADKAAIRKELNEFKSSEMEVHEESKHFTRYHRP
UniProt Q9BTU6: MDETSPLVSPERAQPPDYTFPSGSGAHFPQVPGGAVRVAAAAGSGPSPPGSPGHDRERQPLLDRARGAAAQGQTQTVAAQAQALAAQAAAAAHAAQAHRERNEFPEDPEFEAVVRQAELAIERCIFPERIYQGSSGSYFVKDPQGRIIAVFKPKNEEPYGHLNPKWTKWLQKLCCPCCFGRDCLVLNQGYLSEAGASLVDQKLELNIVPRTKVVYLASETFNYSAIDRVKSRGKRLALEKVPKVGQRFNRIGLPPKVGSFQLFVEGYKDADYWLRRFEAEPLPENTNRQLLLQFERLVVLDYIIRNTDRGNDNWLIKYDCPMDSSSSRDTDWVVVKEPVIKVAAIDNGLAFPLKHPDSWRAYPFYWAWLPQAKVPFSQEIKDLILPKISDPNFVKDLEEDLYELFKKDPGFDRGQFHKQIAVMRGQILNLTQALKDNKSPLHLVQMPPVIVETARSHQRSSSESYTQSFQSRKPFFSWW
UniProt P11309, whole entry, looked up: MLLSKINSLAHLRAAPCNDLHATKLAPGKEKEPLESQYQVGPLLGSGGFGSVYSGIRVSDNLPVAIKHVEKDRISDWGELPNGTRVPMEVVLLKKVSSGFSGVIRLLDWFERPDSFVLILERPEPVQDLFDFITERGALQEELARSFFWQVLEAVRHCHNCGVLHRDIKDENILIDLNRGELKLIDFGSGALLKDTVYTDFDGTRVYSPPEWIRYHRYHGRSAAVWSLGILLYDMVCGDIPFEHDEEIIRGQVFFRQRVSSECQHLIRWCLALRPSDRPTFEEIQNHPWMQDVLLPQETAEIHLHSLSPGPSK
UniProt Q9H8W4: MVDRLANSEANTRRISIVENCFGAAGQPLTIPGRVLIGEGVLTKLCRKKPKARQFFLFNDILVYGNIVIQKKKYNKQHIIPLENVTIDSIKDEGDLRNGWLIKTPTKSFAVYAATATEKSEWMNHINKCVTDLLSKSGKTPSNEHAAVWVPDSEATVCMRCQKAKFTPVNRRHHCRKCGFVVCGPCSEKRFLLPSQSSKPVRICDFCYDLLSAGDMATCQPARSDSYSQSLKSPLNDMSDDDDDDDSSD
UniProt Q9H490: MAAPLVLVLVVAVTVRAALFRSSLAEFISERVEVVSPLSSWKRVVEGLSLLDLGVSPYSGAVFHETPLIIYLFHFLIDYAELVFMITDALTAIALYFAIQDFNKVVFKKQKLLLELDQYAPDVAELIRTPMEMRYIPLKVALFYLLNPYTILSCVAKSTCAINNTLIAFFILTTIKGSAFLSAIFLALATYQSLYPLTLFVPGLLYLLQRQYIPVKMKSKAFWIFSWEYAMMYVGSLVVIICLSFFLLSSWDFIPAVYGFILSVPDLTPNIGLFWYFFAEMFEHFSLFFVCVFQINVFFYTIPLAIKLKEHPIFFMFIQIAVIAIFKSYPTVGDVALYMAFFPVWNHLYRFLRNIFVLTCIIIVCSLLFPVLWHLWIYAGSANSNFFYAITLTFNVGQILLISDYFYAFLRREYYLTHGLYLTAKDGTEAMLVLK
UniProt P19174: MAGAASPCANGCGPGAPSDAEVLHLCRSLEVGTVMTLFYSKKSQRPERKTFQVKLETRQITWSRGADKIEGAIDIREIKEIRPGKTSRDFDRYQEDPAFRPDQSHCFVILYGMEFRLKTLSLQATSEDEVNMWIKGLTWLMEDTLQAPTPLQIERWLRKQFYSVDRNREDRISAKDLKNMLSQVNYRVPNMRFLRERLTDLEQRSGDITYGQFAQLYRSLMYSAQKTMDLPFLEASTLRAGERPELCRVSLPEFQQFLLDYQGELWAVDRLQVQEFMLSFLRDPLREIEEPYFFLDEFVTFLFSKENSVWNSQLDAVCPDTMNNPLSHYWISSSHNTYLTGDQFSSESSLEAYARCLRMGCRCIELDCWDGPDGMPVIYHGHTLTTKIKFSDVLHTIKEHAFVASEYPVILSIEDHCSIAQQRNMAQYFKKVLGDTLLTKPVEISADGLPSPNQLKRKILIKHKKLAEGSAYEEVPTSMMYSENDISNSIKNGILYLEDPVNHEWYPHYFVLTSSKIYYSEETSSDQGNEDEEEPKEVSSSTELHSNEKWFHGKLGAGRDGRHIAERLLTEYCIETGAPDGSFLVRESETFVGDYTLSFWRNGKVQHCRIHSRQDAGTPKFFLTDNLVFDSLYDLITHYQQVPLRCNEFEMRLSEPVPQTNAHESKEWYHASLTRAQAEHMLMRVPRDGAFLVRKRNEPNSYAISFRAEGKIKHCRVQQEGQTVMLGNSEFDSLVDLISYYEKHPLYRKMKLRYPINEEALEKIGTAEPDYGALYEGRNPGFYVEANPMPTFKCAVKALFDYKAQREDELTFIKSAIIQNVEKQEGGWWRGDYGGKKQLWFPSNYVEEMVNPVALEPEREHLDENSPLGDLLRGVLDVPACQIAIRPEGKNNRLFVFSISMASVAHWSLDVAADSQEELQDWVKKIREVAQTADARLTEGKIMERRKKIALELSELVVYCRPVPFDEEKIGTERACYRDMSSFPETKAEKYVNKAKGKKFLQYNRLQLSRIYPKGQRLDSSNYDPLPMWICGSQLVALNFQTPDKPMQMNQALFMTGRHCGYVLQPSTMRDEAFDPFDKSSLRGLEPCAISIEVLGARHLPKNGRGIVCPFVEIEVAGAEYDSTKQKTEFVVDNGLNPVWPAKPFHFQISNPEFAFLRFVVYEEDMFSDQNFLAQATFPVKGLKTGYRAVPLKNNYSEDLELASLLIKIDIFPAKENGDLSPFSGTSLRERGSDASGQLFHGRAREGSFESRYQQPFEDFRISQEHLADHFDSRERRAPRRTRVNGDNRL
UniProt Q8IWS0: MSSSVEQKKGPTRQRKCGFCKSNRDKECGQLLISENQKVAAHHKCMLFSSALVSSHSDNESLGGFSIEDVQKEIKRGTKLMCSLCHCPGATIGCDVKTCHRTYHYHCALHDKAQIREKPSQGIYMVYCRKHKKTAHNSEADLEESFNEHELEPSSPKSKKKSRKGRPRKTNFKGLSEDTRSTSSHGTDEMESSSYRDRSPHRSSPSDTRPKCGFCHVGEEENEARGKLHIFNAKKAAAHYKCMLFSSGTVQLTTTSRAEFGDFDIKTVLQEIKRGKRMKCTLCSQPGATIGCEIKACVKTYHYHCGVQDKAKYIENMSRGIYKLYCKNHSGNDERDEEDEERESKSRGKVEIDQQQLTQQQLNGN
UniProt P12273: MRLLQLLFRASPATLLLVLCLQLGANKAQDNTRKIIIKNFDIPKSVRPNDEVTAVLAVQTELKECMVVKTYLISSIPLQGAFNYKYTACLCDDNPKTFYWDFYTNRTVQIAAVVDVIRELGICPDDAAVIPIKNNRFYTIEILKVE
UniProt Q9NXJ5: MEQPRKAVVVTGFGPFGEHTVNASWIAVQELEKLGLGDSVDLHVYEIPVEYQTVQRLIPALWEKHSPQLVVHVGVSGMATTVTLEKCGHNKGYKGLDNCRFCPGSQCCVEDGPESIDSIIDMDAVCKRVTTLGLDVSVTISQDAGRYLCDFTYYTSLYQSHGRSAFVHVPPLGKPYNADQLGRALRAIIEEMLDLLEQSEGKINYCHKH
UniProt Q96S52: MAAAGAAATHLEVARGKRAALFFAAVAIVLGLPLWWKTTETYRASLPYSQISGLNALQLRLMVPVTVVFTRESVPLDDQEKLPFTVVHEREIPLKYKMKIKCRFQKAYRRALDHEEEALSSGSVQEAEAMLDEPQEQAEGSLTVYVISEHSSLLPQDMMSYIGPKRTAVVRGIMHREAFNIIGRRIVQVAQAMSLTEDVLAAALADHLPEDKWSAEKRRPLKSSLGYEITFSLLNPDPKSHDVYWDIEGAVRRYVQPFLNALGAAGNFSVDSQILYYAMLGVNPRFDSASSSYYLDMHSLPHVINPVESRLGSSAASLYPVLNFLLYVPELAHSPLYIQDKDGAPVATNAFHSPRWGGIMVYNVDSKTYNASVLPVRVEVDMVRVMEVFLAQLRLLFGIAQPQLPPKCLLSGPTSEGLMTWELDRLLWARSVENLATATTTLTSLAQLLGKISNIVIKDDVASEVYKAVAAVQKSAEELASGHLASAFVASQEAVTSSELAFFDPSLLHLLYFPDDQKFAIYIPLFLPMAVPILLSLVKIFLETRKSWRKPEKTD
UniProt Q8N4L2: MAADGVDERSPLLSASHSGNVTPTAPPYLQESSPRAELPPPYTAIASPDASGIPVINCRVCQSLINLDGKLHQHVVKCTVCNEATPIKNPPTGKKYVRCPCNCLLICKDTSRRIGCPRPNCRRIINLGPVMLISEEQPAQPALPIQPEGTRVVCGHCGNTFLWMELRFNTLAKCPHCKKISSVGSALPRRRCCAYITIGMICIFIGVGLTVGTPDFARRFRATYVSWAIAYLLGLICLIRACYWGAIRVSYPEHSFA
UniProt Q9NRD5, whole entry, looked up: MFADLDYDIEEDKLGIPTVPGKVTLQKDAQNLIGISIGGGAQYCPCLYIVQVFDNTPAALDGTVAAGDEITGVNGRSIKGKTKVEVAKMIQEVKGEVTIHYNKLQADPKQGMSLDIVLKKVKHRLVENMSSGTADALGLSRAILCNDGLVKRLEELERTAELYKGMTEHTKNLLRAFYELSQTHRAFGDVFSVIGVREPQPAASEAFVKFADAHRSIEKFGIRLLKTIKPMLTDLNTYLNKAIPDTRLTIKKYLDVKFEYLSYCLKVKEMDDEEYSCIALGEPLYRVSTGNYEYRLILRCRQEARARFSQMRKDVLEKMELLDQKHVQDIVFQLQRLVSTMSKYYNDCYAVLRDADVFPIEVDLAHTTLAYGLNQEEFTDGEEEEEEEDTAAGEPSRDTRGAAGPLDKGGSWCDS
UniProt Q8IUZ5: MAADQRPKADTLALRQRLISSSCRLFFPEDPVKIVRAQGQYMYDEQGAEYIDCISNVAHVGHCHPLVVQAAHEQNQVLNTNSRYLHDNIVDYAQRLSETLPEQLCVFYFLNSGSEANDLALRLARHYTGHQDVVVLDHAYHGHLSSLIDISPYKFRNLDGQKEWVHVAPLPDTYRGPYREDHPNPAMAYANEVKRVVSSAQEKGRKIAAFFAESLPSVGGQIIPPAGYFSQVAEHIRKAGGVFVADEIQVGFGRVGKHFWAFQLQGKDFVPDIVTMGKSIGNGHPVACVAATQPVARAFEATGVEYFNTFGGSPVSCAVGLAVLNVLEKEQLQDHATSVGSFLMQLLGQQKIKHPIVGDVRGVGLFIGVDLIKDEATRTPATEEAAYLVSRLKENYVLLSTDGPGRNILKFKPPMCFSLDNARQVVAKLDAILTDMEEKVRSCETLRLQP

Tests used:
Test in all cases: log2 fold change, soluble protein after heating vs DMSO (PISA); higher = thermal stabilisation; K562 lysate, 10 uM; active = over 0.2 and 3.5 SD of the protein, either way, in both replicates (recomputed)
erlotinib = compound: C#Cc1cccc(Nc2ncnc3cc(OCCOC)c(OCCOC)cc23)c1 [erlotinib]
Procedure, shortened: (§1)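 Pellets of K562 cells were dounce-homogenised in PBS pH 7.4 with 1 mM MgCl2, and the crude extract was held at 1 mg/mL protein for a 30 min treatment with 10 μM compound. Aliquots were heated for 3 min over 48°C-58°C and pooled before NP-40 was added to 0.5% at 4°C. The supernatant from 21,000xg for 90 min was quantified by TMTpro 16plex LC-MS/MS with channel sums equalised. Values are reported from duplicates as log-two fold change in thermal stability relative to solvent controls.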

[1] = compound: C/C(=N\NC(=O)C1=CC(=CC=C1)S(=O)(=O)N2CCOCC2)/C3=C(C=CC(=C3)Cl)O
Procedure, shortened: as §1

[2] = compound: C1=CC(=CC=C1C2=NC3=C(N2)C=C(C=C3)C(=O)N)OC4=CC=C(C=C4)Cl
Procedure, shortened: as §1

[3] = compound: C1=CC2=C(C=CC(=C2)/C=C\3/C(=O)NC(=NCC4=CC=CS4)S3)N=C1
Procedure, shortened: as §1

[4] = compound: C1=CC2=NC=CN=C2C=C1/C=C/3\C(=O)NC(=O)S3
Procedure, shortened: as §1

[5] = compound: C1=CC=C(C=C1)C2=NC(=C(N2)C3=CC=NC=C3)C4=CC(=C(C=C4)Cl)O
Procedure, shortened: as §1

[6] = compound: C1=CC=C2C(=C1)C3=NNC4=CC=CC(=C43)C2=O
Procedure, shortened: as §1

[7] = compound: C1CCN(C1)C(=O)NC2=CC=CC(=C2)NC3=NC=C(C(=N3)NCCC4=CN=CN4)Br
Procedure, shortened: as §1

[8] = compound: C1CN(CCC1(CC2=CC=C(C=C2)Cl)N)C3=NC=NC4=C3C=CN4
Procedure, shortened: as §1

IRAK-1-4 Inhibitor I = compound: C1COCCN1CCN2C3=CC=CC=C3N=C2NC(=O)C4=CC(=CC=C4)[N+](=O)[O-] [IRAK-1-4 Inhibitor I]
Procedure, shortened: as §1

ibrutinib = compound: C=CC(=O)N1CCC[C@@H](n2nc(-c3ccc(Oc4ccccc4)cc3)c3c(N)ncnc32)C1 [ibrutinib]
Procedure, shortened: as §1

[9] = compound: CC(=O)c1cnc2ccc(-c3cc(Cl)c(O)c(Cl)c3)nc2c1N[C@H]1CC[C@H](CN(C)C)CC1
Procedure, shortened: as §1

ralimetinib = compound: CC(C)(C)Cn1c(N)nc2ccc(-c3[nH]c(C(C)(C)C)nc3-c3ccc(F)cc3)nc21 [ralimetinib]
Procedure, shortened: as §1

[10] = compound: CC(C)(O)CC(=O)NCCn1ccc2ncnc(Nc3ccc(Oc4cccc(C(F)(F)F)c4)c(Cl)c3)c21
Procedure, shortened: as §1

[11] = compound: CC(C)C1=C2N=C(C=C(N2N=C1)NCC3=CC=CC=C3)NCCCCCCN
Procedure, shortened: as §1

[12] = compound: CC1=C(C(CC(=O)N1)C2=CC=C(C=C2)C(F)(F)F)C(=O)NC3=C(C=C4C(=C3)C=NN4)F
Procedure, shortened: as §1

[13] = compound: CC1=C(C2=C(C=C1)C(=O)C3=CC=CC=C3N2CCCN)C
Procedure, shortened: as §1

[14] = compound: CC1=C(C=C(C=C1)NC(=O)C2=CC(=CC=C2)C(C)(C)C#N)NC3=CC4=C(C=C3)N=CN(C4=O)C
Procedure, shortened: as §1

[15] = compound: CC1=C(C=C(C=C1)NC(=O)C2=CC(=CC=C2)N(C)C)NC(=O)C3=CC=C(C=C3)O
Procedure, shortened: as §1

[16] = compound: CC1=CC=C(C=C1)SC2=C3C=C(SC3=CN=C2)C(=O)N
Procedure, shortened: as §1

Measured: log2 fold change

PHACTR4 isoform 2 (UniProt Q8IZ21)
inactive: erlotinib 0.003 | [1] -0.02 | [2] 0.012 | [3] -0.004 | [4] -0.021 | [5] 0.021 | [6] 0.013 | [7] -0.017 | [8] 0.052 | IRAK-1-4 Inhibitor I 0.011 | ibrutinib -0.009 | [9] -0.005 | ralimetinib -0.009 | [10] -0.047 | [11] -0.019 | [12] 0.025 | [13] -0.028 | [14] 0.021 | [15] -0.016 | [16] -0.01

PIGO (UniProt Q8TEQ8)
inactive: erlotinib 0.179 | [1] -0.423 | [2] -0.266 | [3] 0.242 | [4] 0.132 | [5] 0.001 | [6] -0.285 | [7] -0.001 | [8] 0.117 | IRAK-1-4 Inhibitor I 0.114 | ibrutinib 0.093 | [9] 0.016 | ralimetinib -0.039 | [10] -0.013 | [11] -0.068 | [12] -0.041 | [13] -0.05 | [14] -0.1 | [15] -0.047 | [16] -0.158

PI4K2A (UniProt Q9BTU6)
inactive: erlotinib -0.013 | [1] -0.005 | [2] -0.041 | [3] 0.021 | [4] -0.003 | [5] 0.02 | [6] 0.063 | [7] 0.002 | [8] 0.058 | IRAK-1-4 Inhibitor I 0.003 | ibrutinib -0.017 | [9] 0.044 | ralimetinib 0.002 | [10] -0.037 | [11] -0.006 | [12] -0.028 | [13] 0.028 | [14] -0.06 | [15] 0 | [16] -0.009

PIM1 isoform 2 (UniProt P11309)
inactive: erlotinib 0.118 | [1] -0.106 | [2] -0.164 | [3] 0.028 | [4] 0.238 | [5] 0.123 | [6] -0.034 | [7] -0.077 | [8] 0.02 | IRAK-1-4 Inhibitor I -0.076 | ibrutinib -0.138 | ralimetinib 0.042 | [10] 0.122 | [11] -0.038 | [12] -0.014 | [13] 0.054 | [14] 0.01 | [15] 0.054

PLEKHF2 (UniProt Q9H8W4)
inactive: erlotinib -0.037 | [1] -0.017 | [2] 0.089 | [3] 0.022 | [4] -0.048 | [5] 0 | [6] -0.047 | [7] -0.033 | [8] 0.003 | IRAK-1-4 Inhibitor I -0.022 | ibrutinib 0.033 | [9] -0.003 | ralimetinib 0.008 | [10] -0.05 | [11] 0.051 | [12] 0.001 | [13] -0.053 | [14] 0.114 | [15] 0.099 | [16] -0.001

PIGU (UniProt Q9H490)
inactive: erlotinib 0.023 | [1] 0.105 | [2] -0.11 | [3] 0.064 | [4] -0.027 | [5] -0.058 | [6] -0.068 | IRAK-1-4 Inhibitor I 0.059 | ibrutinib 0.026 | [9] 0.024 | ralimetinib -0.005 | [10] -0.137 | [11] -0.071 | [12] 0.015 | [13] -0.195 | [14] 0.011 | [15] 0.048 | [16] 0.021

PHKB isoform 3 (UniProt Q93100)
inactive: erlotinib -0.053 | [1] -0.049 | [2] 0 | [3] 0.044 | [4] 0.082 | [5] 0.036 | [6] 0.142 | [7] 0.038 | [8] 0.01 | IRAK-1-4 Inhibitor I 0.006 | ibrutinib -0.004 | [9] 0.071 | ralimetinib 0.008 | [10] -0.052 | [11] -0.003 | [12] 0.008 | [13] -0.069 | [14] -0.019 | [15] 0.022 | [16] -0.049

PLCG1 isoform 2 (UniProt P19174)
inactive: erlotinib 0.059 | [1] 0.246 | [2] -0.027 | [3] -0.036 | [4] 0.007 | [5] 0.009 | [6] -0.027 | [7] -0.011 | [8] 0.021 | IRAK-1-4 Inhibitor I 0.017 | ibrutinib -0.013 | [9] -0.011 | ralimetinib 0.005 | [10] -0.021 | [11] -0.015 | [12] 0.02 | [13] -0.013 | [14] 0.027 | [15] 0.031 | [16] 0.014

PHF6 (UniProt Q8IWS0)
inactive: erlotinib -0.056 | [1] 0.027 | [2] -0.035 | [3] 0.006 | [4] 0.016 | [5] 0.005 | [6] 0.021 | [7] -0.001 | [8] 0.025 | IRAK-1-4 Inhibitor I -0.075 | ibrutinib 0.03 | [9] -0.076 | ralimetinib -0.025 | [10] 0.019 | [11] 0.297 | [12] -0.04 | [13] -0.037 | [14] 0.017 | [15] -0.001 | [16] 0.022

Copied from the entries so far (two entries):
PLEKHF2 (UniProt Q9H8W4)
inactive: erlotinib -0.037 | [1] -0.017 | [2] 0.089 | [3] 0.022 | [4] -0.048 | [5] 0 | [6] -0.047 | [7] -0.033 | [8] 0.003 | IRAK-1-4 Inhibitor I -0.022 | ibrutinib 0.033 | [9] -0.003 | ralimetinib 0.008 | [10] -0.05 | [11] 0.051 | [12] 0.001 | [13] -0.053 | [14] 0.114 | [15] 0.099 | [16] -0.001

PIGU (UniProt Q9H490)
inactive: erlotinib 0.023 | [1] 0.105 | [2] -0.11 | [3] 0.064 | [4] -0.027 | [5] -0.058 | [6] -0.068 | IRAK-1-4 Inhibitor I 0.059 | ibrutinib 0.026 | [9] 0.024 | ralimetinib -0.005 | [10] -0.137 | [11] -0.071 | [12] 0.015 | [13] -0.195 | [14] 0.011 | [15] 0.048 | [16] 0.021

(next part)

PIP (UniProt P12273)
inactive: erlotinib -0.135 | [1] 0.246 | [2] -0.58 | [3] -0.304 | [4] 0.21 | [5] 0.097 | [6] -0.263 | [7] -0.067 | [8] -0.759 | IRAK-1-4 Inhibitor I -0.367 | ibrutinib -0.11 | [9] -0.291 | ralimetinib -0.207 | [10] 0.46 | [11] 0.906 | [12] 1.62 | [13] 0.221 | [14] 0.009 | [15] 0.073 | [16] -0.39

PGPEP1 (UniProt Q9NXJ5)
inactive: erlotinib -0.003 | [1] 0.102 | [2] -0.053 | [3] -0.046 | [4] 0.013 | [5] 0.014 | [6] -0.018 | [7] -0.059 | [8] 0.001 | IRAK-1-4 Inhibitor I -0.003 | ibrutinib -0.051 | [9] 0.02 | ralimetinib -0.013 | [10] 0.013 | [11] 0.043 | [12] -0.078 | [13] 0.015 | [14] 0.123 | [15] -0.034 | [16] -0.053

PIGS (UniProt Q96S52)
inactive: erlotinib 0.014 | [1] -0.037 | [2] -0.074 | [3] 0.004 | [4] 0.032 | [5] -0.038 | [6] -0.146 | [7] -0.038 | [8] 0.021 | IRAK-1-4 Inhibitor I 0.015 | ibrutinib 0.024 | [9] 0.02 | ralimetinib -0.044 | [10] -0.081 | [11] 0.01 | [12] 0.056 | [13] 0.073 | [14] -0.004 | [15] 0.003 | [16] 0.005

PIP4P2 (UniProt Q8N4L2)
inactive: erlotinib 0.023 | [1] 0.039 | [2] -0.03 | [3] 0.032 | [4] -0.076 | [5] 0.019 | [6] -0.029 | [7] 0.034 | [8] 0.022 | IRAK-1-4 Inhibitor I -0.054 | ibrutinib 0.034 | [9] 0.138 | ralimetinib -0.025 | [10] -0.023 | [11] -0.08 | [12] -0.015 | [13] -0.061 | [14] 0.013 | [15] 0.008 | [16] -0.096

PICALM (UniProt H0YEH1)
inactive: erlotinib -0.004 | [1] -0.111 | [2] 0.053 | [3] 0.066 | [4] -0.021 | [5] -0.015 | [6] 0.106 | [7] -0.219 | [8] -0.333 | IRAK-1-4 Inhibitor I 0.053 | ibrutinib -0.077 | [9] 0.009 | ralimetinib -0.035 | [10] -0.039 | [11] 0.05 | [12] 0.003 | [13] 0.014 | [14] -0.024 | [15] 0.012 | [16] -0.091

PICK1 (UniProt Q9NRD5)
inactive: erlotinib 0.035 | [1] -0.17 | [2] 0.026 | [3] 0.042 | [4] -0.062 | [5] -0.016 | [6] 0.024 | [7] -0.106 | [8] -0.037 | IRAK-1-4 Inhibitor I -0.007 | ibrutinib 0.017 | [9] 0.07 | ralimetinib 0.024 | [10] -0.058 | [11] 0.066 | [12] 0.033 | [13] 0 | [14] 0.013 | [15] 0.003 | [16] 0.009

PHYKPL (UniProt Q8IUZ5)
inactive: erlotinib 0.011 | [1] -0.035 | [2] -0.043 | [3] 0.008 | [4] 0.045 | [5] -0.05 | [6] -0.023 | [7] 0.093 | [8] -0.041 | IRAK-1-4 Inhibitor I -0.003 | ibrutinib 0.075 | [9] -0.035 | ralimetinib 0.024 | [10] 0.113 | [11] 0.054 | [13] 0.042 | [14] -0.006 | [15] 0.025 | [16] -0.011
